In PMC9761386:
These are yes or no findings as the source states them, for the method shown. In cells and extracts the contact can be indirect. A yes stands for co-enrichment or nearness to the bait. Other partners may have been found.

Protein sequences, listed by entry. Tags and fused reporters are not part of them. Lines headed by an entry give the natural chain unless they say otherwise; changes in a name come on top. Chains listed by the source or under a name are the forms on record and can include a tag or linker. Residues count along the entry.
WT PD-L1 (programmed death ligand 1) tagged with GFP (Q9EP73, residues 19-290): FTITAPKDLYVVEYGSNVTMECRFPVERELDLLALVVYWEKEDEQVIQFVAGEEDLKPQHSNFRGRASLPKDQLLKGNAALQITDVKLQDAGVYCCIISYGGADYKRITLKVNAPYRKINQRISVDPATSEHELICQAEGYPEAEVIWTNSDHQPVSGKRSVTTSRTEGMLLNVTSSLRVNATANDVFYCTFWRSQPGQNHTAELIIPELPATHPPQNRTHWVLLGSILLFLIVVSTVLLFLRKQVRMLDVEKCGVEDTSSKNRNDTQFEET
PD-L1 with the TSS-AAA mutation in the cytoplasmic domain, tagged with GFP (Q9EP73, form named): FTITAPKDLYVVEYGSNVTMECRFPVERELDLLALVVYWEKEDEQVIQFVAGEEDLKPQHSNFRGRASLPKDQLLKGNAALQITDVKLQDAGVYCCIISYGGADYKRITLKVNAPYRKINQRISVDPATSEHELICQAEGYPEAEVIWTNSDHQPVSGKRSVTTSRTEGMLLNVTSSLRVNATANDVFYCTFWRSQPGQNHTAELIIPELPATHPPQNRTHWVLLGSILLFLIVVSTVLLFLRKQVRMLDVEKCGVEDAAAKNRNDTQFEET
UniProt Q6P542: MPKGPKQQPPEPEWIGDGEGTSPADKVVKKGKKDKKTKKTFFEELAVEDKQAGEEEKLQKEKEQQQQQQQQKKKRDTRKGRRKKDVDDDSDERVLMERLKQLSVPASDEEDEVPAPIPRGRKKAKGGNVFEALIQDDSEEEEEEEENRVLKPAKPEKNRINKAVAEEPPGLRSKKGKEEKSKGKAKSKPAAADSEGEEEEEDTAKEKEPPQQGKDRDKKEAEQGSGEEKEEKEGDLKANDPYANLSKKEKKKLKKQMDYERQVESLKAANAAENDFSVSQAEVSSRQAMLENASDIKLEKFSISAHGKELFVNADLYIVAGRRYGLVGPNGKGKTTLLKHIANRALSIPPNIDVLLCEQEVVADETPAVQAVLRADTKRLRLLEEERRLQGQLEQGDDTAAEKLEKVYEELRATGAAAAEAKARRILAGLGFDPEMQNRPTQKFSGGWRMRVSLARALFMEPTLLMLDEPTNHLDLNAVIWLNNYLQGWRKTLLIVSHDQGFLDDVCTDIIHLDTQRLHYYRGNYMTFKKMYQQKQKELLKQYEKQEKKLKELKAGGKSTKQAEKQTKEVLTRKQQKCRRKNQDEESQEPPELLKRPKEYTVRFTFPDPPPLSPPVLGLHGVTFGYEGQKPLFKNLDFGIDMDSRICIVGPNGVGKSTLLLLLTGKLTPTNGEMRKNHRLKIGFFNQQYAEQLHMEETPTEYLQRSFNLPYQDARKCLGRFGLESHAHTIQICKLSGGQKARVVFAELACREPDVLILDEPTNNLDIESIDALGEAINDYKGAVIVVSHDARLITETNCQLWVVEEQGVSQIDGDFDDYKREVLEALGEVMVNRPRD
UniProt Q3UMF0: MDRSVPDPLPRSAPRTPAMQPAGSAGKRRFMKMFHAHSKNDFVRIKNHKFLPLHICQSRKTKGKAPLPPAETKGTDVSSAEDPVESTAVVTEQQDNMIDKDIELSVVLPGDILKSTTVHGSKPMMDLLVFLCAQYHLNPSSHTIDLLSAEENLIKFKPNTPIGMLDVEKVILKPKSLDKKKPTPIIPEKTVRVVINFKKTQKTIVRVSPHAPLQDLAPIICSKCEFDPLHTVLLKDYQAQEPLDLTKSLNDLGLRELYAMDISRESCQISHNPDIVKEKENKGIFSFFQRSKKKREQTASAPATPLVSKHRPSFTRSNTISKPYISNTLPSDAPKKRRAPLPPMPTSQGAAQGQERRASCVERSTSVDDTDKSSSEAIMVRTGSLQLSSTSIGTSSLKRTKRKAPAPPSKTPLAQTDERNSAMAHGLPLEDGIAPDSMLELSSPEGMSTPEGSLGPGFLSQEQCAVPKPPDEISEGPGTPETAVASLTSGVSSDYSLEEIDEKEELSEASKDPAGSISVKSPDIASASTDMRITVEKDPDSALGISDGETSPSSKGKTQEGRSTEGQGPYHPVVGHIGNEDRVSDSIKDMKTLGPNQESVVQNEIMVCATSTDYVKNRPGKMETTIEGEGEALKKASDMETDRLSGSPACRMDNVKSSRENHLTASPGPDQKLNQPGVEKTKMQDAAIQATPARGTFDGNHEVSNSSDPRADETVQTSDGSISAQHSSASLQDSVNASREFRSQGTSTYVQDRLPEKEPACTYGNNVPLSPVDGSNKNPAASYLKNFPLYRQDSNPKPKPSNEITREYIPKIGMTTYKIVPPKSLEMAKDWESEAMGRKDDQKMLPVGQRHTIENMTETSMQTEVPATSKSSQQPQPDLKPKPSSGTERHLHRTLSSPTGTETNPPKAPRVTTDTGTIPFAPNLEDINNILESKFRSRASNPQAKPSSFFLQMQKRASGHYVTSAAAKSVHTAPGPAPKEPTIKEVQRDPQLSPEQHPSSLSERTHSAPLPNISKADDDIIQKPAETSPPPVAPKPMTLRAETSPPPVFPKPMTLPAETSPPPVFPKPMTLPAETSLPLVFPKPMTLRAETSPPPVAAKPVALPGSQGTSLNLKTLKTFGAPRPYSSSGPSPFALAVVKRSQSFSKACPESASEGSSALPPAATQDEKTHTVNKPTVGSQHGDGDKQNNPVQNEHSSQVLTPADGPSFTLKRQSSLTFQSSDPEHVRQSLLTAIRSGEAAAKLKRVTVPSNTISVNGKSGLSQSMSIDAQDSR
UniProt Q3UPH7: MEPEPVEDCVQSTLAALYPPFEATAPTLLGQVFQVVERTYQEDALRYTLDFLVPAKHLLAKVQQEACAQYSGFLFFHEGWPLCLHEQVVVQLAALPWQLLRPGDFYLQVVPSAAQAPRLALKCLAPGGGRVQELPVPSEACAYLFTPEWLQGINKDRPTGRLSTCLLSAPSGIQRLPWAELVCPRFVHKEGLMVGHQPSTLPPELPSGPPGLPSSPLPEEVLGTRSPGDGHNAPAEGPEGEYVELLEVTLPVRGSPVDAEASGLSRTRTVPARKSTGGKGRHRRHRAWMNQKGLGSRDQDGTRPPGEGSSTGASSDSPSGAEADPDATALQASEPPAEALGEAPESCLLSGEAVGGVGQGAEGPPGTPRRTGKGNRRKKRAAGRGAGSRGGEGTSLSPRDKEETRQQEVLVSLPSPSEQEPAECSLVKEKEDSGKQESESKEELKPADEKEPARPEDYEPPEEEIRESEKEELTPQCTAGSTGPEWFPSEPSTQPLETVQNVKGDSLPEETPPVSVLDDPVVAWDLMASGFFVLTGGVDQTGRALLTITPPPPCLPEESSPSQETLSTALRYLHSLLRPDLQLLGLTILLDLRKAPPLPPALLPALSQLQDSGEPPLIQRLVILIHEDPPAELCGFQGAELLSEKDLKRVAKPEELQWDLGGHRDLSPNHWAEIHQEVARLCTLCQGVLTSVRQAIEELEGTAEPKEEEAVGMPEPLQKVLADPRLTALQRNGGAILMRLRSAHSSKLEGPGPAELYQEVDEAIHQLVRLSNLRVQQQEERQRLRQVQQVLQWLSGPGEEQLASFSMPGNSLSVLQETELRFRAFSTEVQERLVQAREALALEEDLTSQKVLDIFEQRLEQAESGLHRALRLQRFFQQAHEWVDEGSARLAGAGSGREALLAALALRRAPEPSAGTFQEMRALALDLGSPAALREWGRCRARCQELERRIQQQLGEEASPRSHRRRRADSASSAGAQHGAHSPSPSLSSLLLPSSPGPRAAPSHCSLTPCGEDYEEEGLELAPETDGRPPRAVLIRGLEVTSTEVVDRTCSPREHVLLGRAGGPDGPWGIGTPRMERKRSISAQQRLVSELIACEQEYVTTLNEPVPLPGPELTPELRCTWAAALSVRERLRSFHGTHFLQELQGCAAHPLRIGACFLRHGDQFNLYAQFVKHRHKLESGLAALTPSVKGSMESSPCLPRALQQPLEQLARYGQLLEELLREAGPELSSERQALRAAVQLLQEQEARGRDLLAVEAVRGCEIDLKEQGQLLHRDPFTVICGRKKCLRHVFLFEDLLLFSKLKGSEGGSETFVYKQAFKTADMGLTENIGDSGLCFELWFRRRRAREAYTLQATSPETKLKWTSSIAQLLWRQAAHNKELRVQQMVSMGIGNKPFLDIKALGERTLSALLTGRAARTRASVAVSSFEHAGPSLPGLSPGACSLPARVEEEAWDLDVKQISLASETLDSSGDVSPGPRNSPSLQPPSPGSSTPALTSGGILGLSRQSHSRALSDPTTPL
UniProt Q80YR5: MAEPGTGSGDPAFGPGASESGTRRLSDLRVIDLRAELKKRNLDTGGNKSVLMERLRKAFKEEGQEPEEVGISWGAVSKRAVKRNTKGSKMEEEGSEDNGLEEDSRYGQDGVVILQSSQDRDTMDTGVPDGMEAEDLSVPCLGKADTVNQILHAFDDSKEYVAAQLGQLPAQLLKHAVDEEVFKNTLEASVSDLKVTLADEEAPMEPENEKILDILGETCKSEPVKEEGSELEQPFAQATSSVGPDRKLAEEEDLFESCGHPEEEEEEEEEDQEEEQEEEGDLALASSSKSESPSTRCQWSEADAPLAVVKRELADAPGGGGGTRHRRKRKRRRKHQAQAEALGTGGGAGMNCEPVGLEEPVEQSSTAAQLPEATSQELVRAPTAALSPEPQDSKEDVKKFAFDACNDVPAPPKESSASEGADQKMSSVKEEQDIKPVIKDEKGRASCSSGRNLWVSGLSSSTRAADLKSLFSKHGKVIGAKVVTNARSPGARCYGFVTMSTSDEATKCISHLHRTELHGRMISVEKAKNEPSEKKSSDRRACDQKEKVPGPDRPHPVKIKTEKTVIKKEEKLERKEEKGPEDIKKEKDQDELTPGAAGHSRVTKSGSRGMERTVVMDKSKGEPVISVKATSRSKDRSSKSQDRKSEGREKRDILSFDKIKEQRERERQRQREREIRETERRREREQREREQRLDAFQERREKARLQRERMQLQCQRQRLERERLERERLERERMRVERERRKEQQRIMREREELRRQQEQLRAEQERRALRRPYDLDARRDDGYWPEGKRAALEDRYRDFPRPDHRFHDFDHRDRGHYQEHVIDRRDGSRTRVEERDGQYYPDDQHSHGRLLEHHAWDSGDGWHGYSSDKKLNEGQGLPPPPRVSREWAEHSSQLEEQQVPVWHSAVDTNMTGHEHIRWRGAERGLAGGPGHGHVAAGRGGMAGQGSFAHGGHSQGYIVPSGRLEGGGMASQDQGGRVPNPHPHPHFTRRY

B1: N-Alpha-Acetyltransferase 15, NatA Auxiliary Subunit, phosphorylated (protein, UniProt Q80UM3 1-865)
chain: MPAVSLPPKENALFKRILRCYEHKQYRNGLKFCKQILSNPKFAEHGETLAMKGLTLNCLGKKEEAYELVRRGLRNDLKSHVCWHVYGLLQRSDKKYDEAIKCYRNALKWDKDNLQILRDLSLLQIQMRDLEGYRETRYQLLQLRPAQRASWIGYAIAYHLLEDYEMAAKILEEFRKTQQTSPDKVDYEYSELLLYQNQVLREAGLYREALEHLCTYEKQICDKLAVEETKGELLLQLCRLEDAADVYRGLQERNPGNWAYYKGLEKALKPANMLERLKIYEEAWTKYPRGLVPRRLPLNFLSGEKFKECLDRFLRMNFSKGCPPVFNTLRSLYRDKEKVAIVEELVVGYETSLKSCRLFNPNDDGKEEPPTTLLWVQYYLAQHYDKIGQPSIALEYINTAIESTPTLIELFLVKAKIYKHAGNIKEAARWMDEAQALDTADRFINSKCAKYVLKANLIKEAEEMCSKFTREGTSAVENLNEMQCMWFQTECAQAYKAMNKFGEALKKCHEIERHFIEITDDQFDFHTYCMRKITLRSYVDLLKLEDVLRQHPFYFKAARIAIEIYLKLHDNPLTDENKEHEADTANMSDKELKKLRNKQRRAQKKAQIEEEKKNAEKEKQQRNQKKKKDDDDEEIGGPKEELIPEKLAKVETPLEEAIKFLTPLKNLVKNKIETHLFAFEIYFRKEKFLLMLQSVKRAFAIDSGHPWLHECMIRLFHSVCESKDLPETVRTVLKQEMNRLFGATNPKNFNETFLKRNSDSLPHRLSAAKMVYYLDSSSQKRAIELATTLDGSLTNRNLQTCMEVLEALCDGSLGDCKEAAEAYRASCHKLFPYALAFMPPGYEEDMKITVNGDSSAETEELANEI
modifications: phosphorylated (site not given)
B2: ARF GTPase-activating protein GIT2 (protein, UniProt Q9JLQ2 1-708)
chain: MSKRLRSSDVCADCNGPDPSWASVNRGTFICDECCSVHRSLGRHISQVRHLKHTAWPPTLLQMVETLYNNGANSIWEHSLLDPASIMSGRRKANPQDKVHPNKAEFIRAKYQMLAFVHRLPCREDDSVTAKDLSKQLHSSVRTGNLETCLRLLSLGAQANFFHPEKGSTPLHVASKAGQILQAELLAVYGADPGTQDSSGKTPVDYARQGGHHELAERLIEIQYELTDRLAFYLCGRKPDHKSGQHFLIPQRADSLDLSELAKAAKKKLQSLSNHLFEELAMDVYDEVDRRETDAVWLATQNHSTLVTETTVVPFLPVNPEYSSTRNQGRQKLARFNAHEFATLVIDILSDAKRRQQGSPLSRSKDNVELILRTVSTQHSTESQDNDQPDYDSVASDEDTDVETRASKANRQKLQTLQSENSSLRRQATASACQVQTGSDHKDTASHSSLKRRPSARGSRPMSMYETGSGQKPYLPMGEASHPEESRTRLQPFPTHIGRSALVTSSSSLPSFPSTLSWSRDESARRASRLEKQNSTPESDYDNTACDPEPDDTGSTRKGRQRSMLWQGDGLLPDTAEPHSVPSPTLPSTEDVIRKTEQITKNIQELLRAAQENKHDSYIPCSERIHVAVTEMAALFPKKPKSDTVRTSLRLLTSSAYRLQSECRKALPGDSSLPTDVQLVTQQVIQCAYDIAKAAKQLVTITTKENSS
B3: Arf-GAP with coiled-coil, ANK repeat and PH domain-containing protein (ACAP2) (protein, UniProt Q6ZQK5 1-770)
chain: MKMTVDFEECLKDSPRFRAALEEVEGDVAELELKLDKLVKLCIAMIDTGKAFCVANKQFMNGIRDLAQYSSNDAVVETSLTKFSDSLQEMINFHTILFDQTQRSIKAQLQNFVKEDLRKFKDAKKQFEKVSEEKENALVKNAQVQRNKQHEVEEAANILTATRKCFRHIALDYVLQINVLQSKRRSEILKSMLSFMYAHLAFFHQGYDLFSELGPYMKDLGAQLDRLVVDAAKEKREMEQKHSTIQQKDFSSDDSKLEYNVDAANGIVMEGYLFKRASNAFKTWNRRWFSIQNNQLVYQKKFKDSPTVVVEDLRLCTVKHCEDIERRFCFEVVSPTKSCMLQADSEKLRQAWIKAVQTSIATAYREKGDESEKLDKKSSPSTGSLDSGNESKEKLLKGESALQRVQCIPGNTSCCDCGLADPRWASINLGITLCIECSGIHRSLGVHFSKVRSLTLDTWEPELLKLMCELGNDVINRVYEAKLEKMGVKKPQPGQRQEKEAYIRAKYVERKFVDKYSALLSPSEQEKRIISKSCEDQRLSHARASVHTPVKSNDSGIQQCSEDGRESLPSTVSANSLYEPEGERQESSVFLDSKHLNPGLQLYRASYEKNLPKMAEALAHGADVNWANSDENQATPLIQAVLGGSLVTCEFLLQNGANVNQRDVQGRGPLHHATVLGHTGQVCLFLKRGANQHATDEEGKDPLSIAVEAANADIVTLLRLARMNEEMRESEGLYGQPGDETYQDIFRDFSQMASNNPEKLNRFQQDSQKF
B4: Arf-GAP with Rho-GAP domain, ANK repeat and PH domain-containing protein 1 (protein, UniProt Q4LDD4 1-1452)
chain: MAEGYDAALSVAEWLRALHLEQYTALFEQHGLVWATECQGLSDAGLLDMGMHLPGHRRRILAGLHRAHAPPVPLPRPAPRPVPMKRHIFRSPPVPVTPPEPPPTAGEDEGLPAAPPIPPRRSCLPPACFTPTSTAAPDPVLPPLPAKRHLVEPSVPPVPPRTGPPYPQASLLAKEELLLPSVSPRSQPEPAETPSTLLPAFPQGPLQPPSPPPCPPVIPPKPPRLLPEFDDSDYDDVPEEGPGAPASVMTKEEPLPSRVPRAVRVASLLSEGEELSGDDSEDDDDHAYEGIPNGGWPTSGLNPPLRSLIPDLPLHPMDELPGGPTPITPVIKAGWLDKNPPQGSYIYQKRWVRLDADYLRYFDSNKDAYSKRFVPVACICRVAPIGDQKFEVITNNRTFAFRAESDVERNEWMQALQQAVVEHRARFRLSSASVLGVRGSEQPDRAGSLELRGFKNKLYVAVTGDKVQLYKNLEEFHLGIGITFIDMNVGNVKEVDRRSFDLTTPYRIFSFSADSELEKEQWLEAMQGAIAEALSTSEVAERIWAAAPNRFCADCGAAQPDWASINLCVVICKRCAGEHRGLGAGVSKVRSLKMDRKVWTEALIQLFLHLGNGPGNHFWAANVPPSEALEPSSSPGARRYHLEAKYREGKYRRYHPLFGNQEELDKALCAAVTTTDLAETQALLGCGAGVSCFSGDPAAPTPLALAEQAGQTLQMEFLRNNQSTEVPRLDSVKPLEKHYSVTLPTVSHSGFLYKTASAGKPLQDRRAREEFSRRWCVLSDGVLSYYENERAVTPNGEIRASEIVCLAVSPLDTHGFEHTFEVYTEGERLYLFGLENAELAHEWVKCIAKAFVPPLAEDLLARDFERLGRLPCKAGLSLQQAQEGWFALTGSELRAVFPEGPWEEPLQLRKLQELSIQGDSENQVLVLVERRRTLYIQGERRLDFMAWLGVIQKAAASLGDTLSEQQLGDSDIPVIVYRCVDYITQCGLTSEGIYRKCGQTSKTQRLLDSLRQDARSVHLKEGEQHVDDVSSALKRFLRDLPDGLFTRAQRLAWLEASEIEDEEEKISRYRELLVHLPPVNRATVKALISHLYCVQCFSDTNQMNTHNLAIVFGPTLFQTDGQDYKAGKVVEDLINHYVVVFSVDEEELRKQREEVTAIVKMRVAGTASGTQHAGDFICTVYLEEKKVETEQHVKIPASMTAEELTLEILDRRNVSIREKDYWTCFEVNEKEEAERPLHFAEKVLPIVHGLGIDSHLVVKKYQSMEAMLLYLASRVGDTKHGMMKFREDRSLLGLGLPSGGFHDRYFILNSSCLRLYKEVRSQRPWSGAPETSHRPEKEWPVKSLKVYLGVKKKLRPPTCWGFTVVHETEKHEKQQWYLCCDTQMELREWFATFLSVQHDGLVWPSEPSRVSRAVPEVRMGSVSLIPLRGSENEMRRSVAAFTADPLSLLRHV
B5: Thyroid Hormone Receptor Alpha (protein, UniProt P63058 1-492)
chain: MEQKPSKVECGSDPEENSARSPDGKRKRKNGQCPLKSSMSGYIPSYLDKDEQCVVCGDKATGYHYRCITCEGCKGFFRRTIQKNLHPTYSCKYDSCCVIDKITRNQCQLCRFKKCIAVGMAMDLVLDDSKRVAKRKLIEQNRERRRKEEMIRSLQQRPEPTPEEWDLIHVATEAHRSTNAQGSHWKQRRKFLPDDIGQSPIVSMPDGDKVDLEAFSEFTKIITPAITRVVDFAKKLPMFSELPCEDQIILLKGCCMEIMSLRAAVRYDPESDTLTLSGEMAVKREQLKNGGLGVVSDAIFELGKSLSAFNLDDTEVALLQAVLLMSTDRSGLLCVDKIEKSQEAYLLAFEHYVNHRKHNIPHFWPKLLMKEREVQSSILYKGAAAEGRPGGSLGVHPEGQQLLGMHVVQGPQVRQLEQQLGEAGSLRGPVLQHQSPKSPQQRLLELLHRSGILHSRAVCGEDDSSEASSLSSSSDTEDTEVCEDQAGKAASP
B6: DnaJ Heat Shock Protein Family (Hsp40) Member C7 (protein, UniProt Q9QYI3 1-494)
chain: MAATAECDVVMAATEPELLEDEDAKREAESFKEQGNAYYAKKDYNEAYNYYTKAIDMCPNNASYYGNRAATLMMLGRFREALGDAQQSVRLDDSFVRGHLREGKCHLSLGNAMAACRSFQRALELDHKNAQAQQEFKNANAVMEYEKIAEVDFEKRDFRKVVFCMDRALEFAPACHRFKILKAECLAMLGRYPEAQFVASDILRMDSTNADALYVRGLCLYYEDCIEKAVQFFVQALRMAPDHEKACVACRNAKALKAKKEDGNKAFKEGNYKLAYELYTEALGIDPNNIKTNAKLYCNRGTVNSKLRQLEDAIEDCTNAVKLDDTYIKAYLRRAQCYMDTEQFEEAVRDYEKVYQTEKTKEHKQLLKNAQLELKKSKRKDYYKILGVDKNASEDEIKKAYRKRALMHHPDRHSGASAEVQKEEEKKFKEVGEAFTILSDPKKKTRYDSGQDLDEEGMNMGDFDANNIFKAFFGGPGGFSFEASGPGNFYFQFG
B7: Perilipin 2 (protein, UniProt P43883 1-425)
chain: MAAAVVDPQQSVVMRVANLPLVSSTYDLVSSAYVSTKDQYPYLRSVCEMAEKGVKTVTSAAMTSALPIIQKLEPQIAVANTYACKGLDRMEERLPILNQPTSEIVASARGAVTGAKDVVTTTMAGAKDSVASTVSGVVDKTKGAVTGSVERTKSVVNGSINTVLGMVQFMNSGVDNAITKSELLVDQYFPLTQEELEMEAKKVEGFDMVQKPSNYERLESLSTKLCSRAYHQALSRVKEAKQKSQETISQLHSTVHLIEFARKNMHSANQKIQGAQDKLYVSWVEWKRSIGYDDTDESHCVEHIESRTLAIARNLTQQLQTTCQTVLVNAQGLPQNIQDQAKHLGVMAGDIYSVFRNAASFKEVSDGVLTSSKGQLQKMKESLDEVMDYFVNNTPLNWLVGPFYPQSTEVNKASLKVQQSEVKAQ
B8: Solute Carrier Family 25 Member 3 (protein, UniProt Q8VEM8 46-357)
chain: AVEEYSCEFGSMKYYALCGFGGVLSCGLTHTAVVPLDLVKCRMQVDPQKYKGIFNGFSITLKEDGVRGLAKGWAPTLIGYSMQGLCKFGFYEVFKALYSNILGEENTYLWRTSLYLASSASAEFFADIALAPMEAAKVRIQTQPGYANTLREAVPKMYKEEGLNAFYKGVAPLWMRQIPYTMMKFACFERTVEALYKFVVPKPRSECTKAEQLVVTFVAGYIAGVFCAIVSHPADSVVSVLNKEKGSTASQVLQRLGFRGVWKGLFARIIMIGTLTALQWFIYDSVKVYFRLPRPPPPEMPESLKKKLGLTE

Molecular target: PD-L1 with the TSS-AAA mutation in the cytoplasmic domain, tagged with GFP (mouse) (UniProt Q9EP73)
Assay: affinity purification with mass spectrometry; PD-L1-GFP immunoprecipitated from lysates of SVEC4-10 cells after sodium vanadate; peptides enriched for phosphopeptides (Fe-NTA) before LC-MS/MS; n = 3 samples per group

| Molecule | binding |
| --- | --- |
| ATP Binding Cassette Subfamily F Member 1, phosphorylated (from UniProt Q6P542 1-837) | binds |
| Cordon-bleu Protein Like-1, phosphorylated (from UniProt Q3UMF0 1-1273) | binds |
| Rho Guanin nucleotide exchange factor 40, phosphorylated (from UniProt Q3UPH7 1-1517) | binds |
| Scaffold Attachment Factor B2, phosphorylated (from UniProt Q80YR5 1-991) | binds |
| B1 | binds |

Molecular target: WT PD-L1 (programmed death ligand 1) tagged with GFP (mouse) (UniProt Q9EP73)
Assay: affinity purification with mass spectrometry; GFP-tagged PD-L1 precipitated from SVEC4-10 lysate overnight with GST-tagged anti-GFP nanobody on GST beads, washed 4x in TBS with 0.1% Tween-20; cells with or without sodium vanadate; in-gel trypsin digest, LC-MS/MS; N = 6 samples per cell type

| Molecule | binding |
| --- | --- |
| B2 | binds |
| B3 | binds |
| B4 | binds |
| B5 | binds |
| B6 | binds |
| B7 | binds |
| B8 | binds |
